Patent publication US8367349B2, “Methods for identifying modulators of LRRK2” (Medical Research Council, priority 2010, dated 2013)
At least one compound was matched to its structure with a doubt left. Some of these results come from one statement about several compounds together.

Protein sequences, listed by entry. Tags and fused reporters are not part of them. Lines headed by an entry give the natural chain unless they say otherwise; changes in a name come on top.
UniProt Q5S006: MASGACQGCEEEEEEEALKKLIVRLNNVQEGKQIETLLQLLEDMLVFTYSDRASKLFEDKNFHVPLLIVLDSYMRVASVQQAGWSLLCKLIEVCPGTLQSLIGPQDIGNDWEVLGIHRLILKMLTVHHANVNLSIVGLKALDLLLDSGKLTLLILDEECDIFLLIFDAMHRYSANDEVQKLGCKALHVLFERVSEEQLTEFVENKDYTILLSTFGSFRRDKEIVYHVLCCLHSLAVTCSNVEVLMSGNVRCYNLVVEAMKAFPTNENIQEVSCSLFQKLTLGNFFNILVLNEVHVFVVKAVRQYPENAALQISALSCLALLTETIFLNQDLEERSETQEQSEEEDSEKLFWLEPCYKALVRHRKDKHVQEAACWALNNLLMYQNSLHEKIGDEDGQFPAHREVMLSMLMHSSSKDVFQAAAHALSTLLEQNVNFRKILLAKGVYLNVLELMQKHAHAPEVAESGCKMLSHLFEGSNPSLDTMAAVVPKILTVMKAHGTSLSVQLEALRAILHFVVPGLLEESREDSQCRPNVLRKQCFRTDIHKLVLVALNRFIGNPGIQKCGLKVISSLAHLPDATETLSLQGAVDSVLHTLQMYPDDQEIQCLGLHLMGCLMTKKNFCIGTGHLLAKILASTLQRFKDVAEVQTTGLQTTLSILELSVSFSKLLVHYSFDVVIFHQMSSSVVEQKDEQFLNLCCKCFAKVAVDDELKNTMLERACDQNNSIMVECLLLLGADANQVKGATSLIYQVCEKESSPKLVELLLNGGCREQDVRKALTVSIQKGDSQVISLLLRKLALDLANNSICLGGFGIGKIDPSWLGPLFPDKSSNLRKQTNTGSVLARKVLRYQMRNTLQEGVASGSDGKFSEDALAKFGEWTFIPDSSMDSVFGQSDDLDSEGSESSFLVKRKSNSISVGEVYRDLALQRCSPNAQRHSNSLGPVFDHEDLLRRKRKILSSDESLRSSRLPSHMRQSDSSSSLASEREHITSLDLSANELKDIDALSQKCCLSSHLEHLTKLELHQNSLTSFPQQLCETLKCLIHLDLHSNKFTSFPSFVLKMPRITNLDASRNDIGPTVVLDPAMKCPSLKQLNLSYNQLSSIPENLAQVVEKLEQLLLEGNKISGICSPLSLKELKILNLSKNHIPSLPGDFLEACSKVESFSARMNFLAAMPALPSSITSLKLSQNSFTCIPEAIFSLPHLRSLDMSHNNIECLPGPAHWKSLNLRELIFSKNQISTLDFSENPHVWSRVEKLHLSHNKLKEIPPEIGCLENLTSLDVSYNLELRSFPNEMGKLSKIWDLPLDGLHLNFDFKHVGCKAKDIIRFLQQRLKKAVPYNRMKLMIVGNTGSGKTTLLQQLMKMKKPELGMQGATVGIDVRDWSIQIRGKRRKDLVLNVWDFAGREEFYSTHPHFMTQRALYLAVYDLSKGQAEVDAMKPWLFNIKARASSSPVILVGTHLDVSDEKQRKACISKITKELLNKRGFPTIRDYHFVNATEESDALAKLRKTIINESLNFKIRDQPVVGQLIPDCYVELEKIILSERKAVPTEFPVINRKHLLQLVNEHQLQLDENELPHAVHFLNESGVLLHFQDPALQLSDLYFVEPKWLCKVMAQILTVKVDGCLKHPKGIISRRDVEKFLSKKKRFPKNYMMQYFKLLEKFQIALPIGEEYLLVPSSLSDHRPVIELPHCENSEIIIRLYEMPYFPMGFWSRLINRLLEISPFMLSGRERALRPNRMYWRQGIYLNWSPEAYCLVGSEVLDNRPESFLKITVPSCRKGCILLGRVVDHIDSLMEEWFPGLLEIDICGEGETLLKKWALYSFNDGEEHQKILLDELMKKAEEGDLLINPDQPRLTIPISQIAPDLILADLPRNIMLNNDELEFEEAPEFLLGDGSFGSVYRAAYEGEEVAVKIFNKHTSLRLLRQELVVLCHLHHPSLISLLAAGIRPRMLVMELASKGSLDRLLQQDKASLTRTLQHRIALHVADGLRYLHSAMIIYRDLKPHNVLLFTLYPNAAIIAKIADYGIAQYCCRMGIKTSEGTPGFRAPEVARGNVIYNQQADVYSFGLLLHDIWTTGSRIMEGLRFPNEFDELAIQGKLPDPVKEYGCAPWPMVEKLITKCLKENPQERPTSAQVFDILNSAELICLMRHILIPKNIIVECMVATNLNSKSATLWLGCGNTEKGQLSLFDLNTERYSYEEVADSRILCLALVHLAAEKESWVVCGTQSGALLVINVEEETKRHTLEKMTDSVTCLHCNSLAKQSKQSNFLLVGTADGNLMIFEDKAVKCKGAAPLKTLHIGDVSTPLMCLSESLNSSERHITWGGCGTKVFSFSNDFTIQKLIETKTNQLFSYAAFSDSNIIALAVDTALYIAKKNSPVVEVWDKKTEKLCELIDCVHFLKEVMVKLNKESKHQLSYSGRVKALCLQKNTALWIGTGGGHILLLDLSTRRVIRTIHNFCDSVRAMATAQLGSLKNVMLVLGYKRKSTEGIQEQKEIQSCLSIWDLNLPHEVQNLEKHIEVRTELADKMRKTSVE

Tests used:
endogenous LRRK2 [1] = molecular target: T1, endogenous LRRK2 (Mus musculus, UniProt Q5S006); test: Kinase activity of endogenous LRRK2 immunoprecipitated from inhibitor-treated Swiss 3T3 cells after wash-out; format: biochemical; conditions: 30 μM H1152 or 10 μM sunitinib for 2 h, inhibitor washed off, 20 μM Nictide
T1 construct: endogenous in cells; host or cells: Swiss 3T3 cells

endogenous LRRK2 [2] = molecular target: T1, endogenous LRRK2; test: Ser910/Ser935 phosphorylation and 14-3-3 binding of endogenous LRRK2 in Swiss 3T3 cells; format: cell-based
Protocol: Cell transfections were performed by the polyethylenimine method. Where inhibitors are utilized, they were dissolved in DMSO and used at the indicated concentrations with an equivalent volume of DMSO used as a control. The final concentration of DMSO in the culture medium was never more than 0.1% (v/v). Inhibitors were added to the culture medium for the indicated times before lysis. Per 15 cm dish, HEK 293 cells were lysed with 1.0 ml and 3T3 cells were lysed with 0.6 ml of lysis buffer supplemented with the indicated detergent and clarified by centrifugation at 16,000×g at 4° C. for 10 minutes. After induction and inhibitor treatment, T-REx-GFP expressing cells were lysed at room temperature with SDS lysis buffer after washing with PBS. SDS lysates were boiled and sonicated to reduce viscosity. When not used immediately, all lysate supernatants were snap frozen in liquid nitrogen and stored at −80° C. until use. Protein concentrations were determined using the Bradford method with BSA as the standard.
Immunological procedures. Cell lysates (10-30 μg) were resolved by electrophoresis on SDS polyacrylamide gels or Novex 4-12% gradient gels, and electroblotted to nitrocellulose membranes. Membranes were blocked with 5% skimmed milk (w/v) in 50 mM Tris/HCl, pH 7.5, 0.15 M NaCl and 0.1% (v/v) Tween (TBST Buffer). For phospho-antibodies, primary antibody was used at a concentration of 1 μg/ml, diluted in 5% skimmed milk in TBST with the inclusion of 10 μg/ml dephosphorylated-peptide. All other antibodies were used at 1 μg/ml in 5% (w/v) milk in TBST. Detection of immune-complexes was performed using either fluorophore conjugated secondary antibodies (Molecular Probes) followed by visualisation using an Odyssey LICOR or by horseradish-peroxidase-conjugated secondary antibodies (Pierce) and an enhanced-chemiluminescence reagent. For immunoprecipitations, antibody was non-covalently coupled to protein G-Sepharose at a ratio of 1 μg antibody/μl of beads, or anti-FLAG M2-agarose was utilized.

CCN(CC)CCNC(=O)c1c(C)[nH]c(/C=C2\C(=O)Nc3ccc(F)cc32)c1C [sunitinib]
endogenous LRRK2 kinase activity after treatment of cells (endogenous LRRK2 [1]): did not affect | concentration inducing almost complete dephosphorylation of Ser910 and Ser935 and loss of 14-3-3 binding (endogenous LRRK2 [2]; 90 minutes): 3 to 10 µM | dephosphorylation of endogenous LRRK2 at Ser910 and Ser935 with concomitant reduction in 14-3-3 binding (endogenous LRRK2 [2]; increasing amounts of inhibitor, 90 minutes): dose dependent dephosphorylation | time for which inhibitory effect on Ser910/Ser935 phosphorylation and 14-3-3 binding was sustained (endogenous LRRK2 [2]; time course (H-1152 at 30 μM)): at least 2 hours | time within which inhibitory effect on Ser910/Ser935 phosphorylation and 14-3-3 binding was observed (endogenous LRRK2 [2]; time course (H-1152 at 30 μM)): ≤ 30 min
